In all, about 140,000 compounds went through this assay and about 4,300 (3.1%) were called active. Inconclusive results, whose numbers are uncertain, are shown with a selection of clear calls.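 Rule for the calls: active = readout at or below -70, meaning at least 70% loss of cells showing the perinucleolar compartment, a nuclear body marking cancer cells; inconclusive = readout between -30 and a set limit; inactive = the rest.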
Assay: High Content Assay for Compounds that inhibit the Assembly of the Perinucleolar Compartment;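 note: plate controls were DMSO wells for no effect and camptothecin positive control wells for full effect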
Conditions: PC3M PTB-GFP, PNC prevalence imaging, 16 h; at 10 µM; active compounds read low
In short: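 Compounds are pinned in duplicate onto adhered PC3M cells stably expressing GFP-tagged PTB and incubated 16 h at 37 C. Cells are then fixed, nuclei stained with Hoechst, and PNC-positive cells counted.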

Structure (SMILES) | activity change (PNC), negative = inhibition
O=C(CCC(=O)c1cccs1)NCc1ccccc1 | inconclusive: -43.9%
O=C(CSCc1c(F)cccc1Cl)NCc1ccco1 | inconclusive: -67%
CCN(CCNC(=O)C1CCN(S(=O)(=O)c2cccc3cccnc23)CC1)c1ccccc1 | inactive: -25.1%
COc1ccccc1NS(=O)(=O)c1cccc(C(=O)N/N=C(\C)c2ccc(-n3ccnc3)cc2)c1 | inconclusive: -30.8%
Cc1ccc2c(c1)cc(CN(Cc1ccco1)C(=O)COc1ccccc1)c1nnnn12 | inconclusive: -38.2%
CCOC(=O)N1CCN(S(=O)(=O)c2cc(C)c(C)cc2C)CC1 | inconclusive: -32.3%
O=C(CCn1c(=O)oc2ccccc21)n1c(=O)oc2ccccc21 | inactive: -28.6%
COc1ccc(-n2cnnc2SCC(=O)c2ccc(S(=O)(=O)N3CCOCC3)cc2)cc1 | inconclusive: -62.1%
CCn1c(COc2cccc(C)c2)nnc1SCC(=O)CC(=O)Nc1ccccc1OC | inconclusive: -57.3%
CC1CCN(CCCNC(=O)C2CCC(=O)N2C2CCCC2)CC1 (configuration not stated) | inactive: 54.5%
O=C(CCl)Nc1cccc(-c2cnc3ccccc3n2)c1 | inconclusive: -45.8%
CCCNC(=O)c1cccc(Cn2nc(C)c(Br)c2C)c1 | inactive: -29.4%
CSc1ccc(C(=O)/C=C/c2ccc(N)cc2)cc1 | inconclusive: -53.4%
CCOC(=O)Cn1c(=O)c2c(nc(Br)n2Cc2ccccc2)n(C)c1=O | inconclusive: -41.4%
Cc1ccc(-c2nc3ccccn3c2NCc2ccc3c(c2)OCO3)cc1 | inconclusive: -51.9%
CC1(C)Cc2c(sc3nn[nH]c(=O)c23)CO1 | active: -84.7%
CS(=O)(=O)c1ccc2nc(NC(=O)CN3CCN(Cc4ccccc4)CC3)sc2c1 | inconclusive: -72.6%
O=C(Cn1cnc([N+](=O)[O-])c1)NC1CCCC1 | inconclusive: -42.5%
CC1C/C(=N\NC(=O)CCc2ccc(S(=O)(=O)N3CCOCC3)cc2)CC(C)(C)C1 (configuration not stated) | inactive: -16.5%

Structure (SMILES) | activity change (PNC), negative = inhibition
CCOC(=O)c1cc(-c2ccccc2)n(CC(=O)Nc2cccc(OC)c2)c1C | inconclusive: -57%
COCCN1Cc2cccc(C(=O)Nc3cc(C)cc(C)c3)c2C1=O | active: -85%
COC(=O)c1cc(NC(=O)CN2CCOCC2)cc(C(=O)OC)c1 | inconclusive: -43.4%
CC1CCc2c(sc(NC(=O)CN3CCN(C(=O)c4ccco4)CC3)c2C#N)C1 (configuration not stated) | active: -117%
COc1cccc(C(=O)N2N=C(c3ccccc3)CC2(O)C(F)(F)F)c1 (configuration not stated) | inconclusive: -49.9%
CC1(C(=O)NC2CCCCC2)CCC(=O)N1Cc1cccnc1 (configuration not stated) | inconclusive: -58.5%
O=C(O/N=C1\CCS(=O)(=O)c2sccc21)c1ccccc1 | inconclusive: -63.6%
Cc1cccc(C)c1NC(=O)Cn1nc(-c2ccccc2)nc1-c1ccccc1 | inactive: -12.6%
COc1cccc2sc(Nc3nnc(-c4ccc(F)cc4)o3)nc12 | inconclusive: -55.6%
CC(=O)c1ccc(Oc2ncnc3sccc23)c(CN2CCOCC2)c1 | inactive: -10.5%
Cc1ccc(N(C(=O)C2CCCC2)C2C=CS(=O)(=O)C2)cc1C (configuration not stated) | inactive: 7.26%
Nc1nc2n(n1)C(c1ccccc1)CC(c1ccc(F)cc1)N2 (configuration not stated) | inconclusive: -34.8%
COCCn1c(COc2ccc(C)cc2)nc2ccccc21 | inconclusive: -48.3%
CCCc1cc(=O)[nH]c(SCC(=O)Nc2ccc(OC(F)F)cc2)n1 | active: -94.4%
CCOC(=O)/C=C1\SCC(=O)N1Cc1nnc(-c2ccccc2Br)o1 | inconclusive: -44.1%
Cc1cccc(CN2CCN(CC(=O)NCCCN3CCN(c4ccc(F)cc4)CC3)C2=O)c1 | inconclusive: -44.2%
COc1cc([N+](=O)[O-])ccc1NC(=S)Nc1cc(C(=O)OC(C)C)cc(C(=O)OC(C)C)c1 | inactive: -23.6%
COc1ccc(N2CSC3=C(C#N)C(c4cccc(OC)c4OC)CC(=O)N3C2)cc1 (configuration not stated) | inactive: 12.3%
CC(C)(C)N1CC(COc2ccccc2)OC1=O (configuration not stated) | inconclusive: -39.7%

Structure (SMILES) | activity change (PNC), negative = inhibition
O=C(Cc1ccccc1)NC1CCS(=O)(=O)C1 (configuration not stated) | inconclusive: -45.1%
Cc1ccc(CSCCNC(=O)c2cccc([N+](=O)[O-])c2)cc1 | inconclusive: -39.7%
CCN1CCN(c2ncc3c(n2)CC(c2ccc(OC)c(OC)c2)CC3=O)CC1 (configuration not stated) | inactive: -26.8%
CCc1onc(C)c1C(=O)Nc1cc(C)ccc1OC | inactive: 72.6%
COc1ccc(-c2cc(=O)oc3cc(OC(C)C(=O)O)ccc23)cc1 (configuration not stated) | inactive: 5.71%
Cc1c(Br)c([N+](=O)[O-])nn1CCCC(=O)Nc1sc2c(c1C#N)CCC2 | inconclusive: -43.7%
Cc1nn(Cc2ccccc2)c2c1C(c1ccncc1)C(C#N)=C(N)O2 (configuration not stated) | inconclusive: -39.3%
CN1C(=O)CC(C(=O)O)SC1=Nc1cc(Cl)cc(Cl)c1 (configuration not stated) | active: -86.9%
Cc1cc(C(=O)OCC(=O)Nc2ccccc2[N+](=O)[O-])c2ccccc2n1 | inactive: 11.9%
Cc1sc2nc(C(C)C)nc(SCC(=O)N3c4ccccc4CC3C)c2c1C (configuration not stated) | active: -97%
COc1ccc(-c2cc(C(F)(F)F)n3nc(C(=O)O)cc3n2)cc1OC | inactive: 28.6%
O=C(NNc1ccccc1[N+](=O)[O-])Nc1ccccc1 | inactive: 12%
COC(=O)c1ccc(-n2nnnc2SCC(=O)NCc2cccc(C(=O)O)c2)cc1 | inconclusive: -49.7%
Cc1cc(C)c(C#N)c(SCSCc2ccccc2)n1 | inconclusive: -50.5%
Cn1cc(Cl)c(C(=O)NC(=S)Nc2sc3c(c2C#N)CCCCC3)n1 | inactive: 14.7%
CC(C)CCn1nnnc1C(c1ccccc1F)N1CCC(C(N)=O)CC1 (configuration not stated) | inconclusive: -36%
CCOc1ccc2c(c1)-c1c(ssc1=S)C(C)(C)N2 | inconclusive: -34.8%
CCN(c1cccc(C)c1)S(=O)(=O)c1ccc2[nH]c(=O)c(=O)[nH]c2c1 | active: -103%
Cc1ccc(-n2c(NN)nc3ccccc3c2=O)c(C)c1 | inconclusive: -33.1%

At a glance, 4 of the compounds above.
Structure (SMILES) | activity change (PNC), negative = inhibition
Cc1cc(C)c(C#N)c(SCSCc2ccccc2)n1 | inconclusive: -50.5%
Cn1cc(Cl)c(C(=O)NC(=S)Nc2sc3c(c2C#N)CCCCC3)n1 | inactive: 14.7%
CC(C)CCn1nnnc1C(c1ccccc1F)N1CCC(C(N)=O)CC1 (configuration not stated) | inconclusive: -36%
CCOc1ccc2c(c1)-c1c(ssc1=S)C(C)(C)N2 | inconclusive: -34.8%
